These results are taken from PMC7862700.

Sequences of proteins named here, by UniProt entry; tags and fusion partners are left off. A change or cut given only in a name is not applied to a line headed by its entry.
UniProt Q01892: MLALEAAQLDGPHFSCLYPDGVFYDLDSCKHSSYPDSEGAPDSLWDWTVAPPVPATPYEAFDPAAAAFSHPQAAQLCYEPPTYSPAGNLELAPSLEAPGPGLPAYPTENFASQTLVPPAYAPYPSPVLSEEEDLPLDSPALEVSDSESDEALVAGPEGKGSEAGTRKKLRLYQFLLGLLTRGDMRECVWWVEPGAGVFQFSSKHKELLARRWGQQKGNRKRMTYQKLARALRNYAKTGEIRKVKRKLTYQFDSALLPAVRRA

This is a selection; strong and weak results do not stand in their true shares. At the low end of the ranking the order means little.

The first test concerns the target T1, EHF (UniProt Q9NZC4).
T1 sequence: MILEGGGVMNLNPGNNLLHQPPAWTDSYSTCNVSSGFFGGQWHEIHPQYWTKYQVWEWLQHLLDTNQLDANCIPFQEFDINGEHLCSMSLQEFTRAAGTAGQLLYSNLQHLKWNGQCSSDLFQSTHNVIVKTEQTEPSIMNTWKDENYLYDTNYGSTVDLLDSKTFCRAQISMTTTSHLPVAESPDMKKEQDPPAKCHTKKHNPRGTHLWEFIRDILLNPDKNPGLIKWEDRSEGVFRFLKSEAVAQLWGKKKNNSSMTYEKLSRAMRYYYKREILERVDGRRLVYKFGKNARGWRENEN
The test can be described thus: DAPPL (digital affinity profiling via proximity ligation, sequencing). As to conditions: 10 mM Tris-HCl pH 7.5, 50 mM NaCl, 1 mM DTT, 4% glycerol, room temperature, 30 min; GST-TFs on glutathione beads, 16-mer random dsDNA library, 0.1% …; high values mean tight binding; double strand, one strand shown; scale: fold enrichment (6-mer frequency, TF over GST control).
CCATAC came in with a binding signal of 1.19. On the same count and under the same terms, next, ACGATA: 1.15; TATGAC: 1.23. Same read-out and setting: next, ACTATA: 1.29; ACTATG: 1.25. ATTGGC displayed a binding signal of 1.15. Same read-out and setting: next, TATCGC: 1.28; AGTGTT: 1.02; TCATCC: 1.38. On the same count and under the same terms, the figure for TTCCTA is 1.59; for AAGTGT it is 1.24. For the sequence GCCCAA, the binding signal was found to be 1. GTCCTC registered a binding signal of 1.28. CCCTGA had a binding signal of 0.989. Still for that read-out and setting: the figure for TGTTCC is 1.83; for AGTACA it is 1.13.

For a further test, the target named is SPIB (UniProt Q01892). Described as above. As to conditions: 10 mM Tris-HCl pH 7.5, 50 mM NaCl, 1 mM DTT, 4% glycerol, room temperature, 30 min; GST-TFs on glutathione beads, 16-mer random dsDNA library, 0.1% …; high values mean tight binding; double strand, one strand shown; scale: fold enrichment (6-mer frequency, TF over GST control).
TGTGGC registered a binding signal of 1.09.

In turn, TTCTTG registered a binding signal of 1.39.

ACGATA showed a binding signal of 1.23. Take AAGTAG: the binding signal is 1.13.

Turning to CTTAAT, the binding signal was 1.3. For TATGAC, the binding signal is 1.4. On the same count and under the same terms, the figure for AATATT is 1.34; for ACCTGA it is 1.1; for ACTATA it is 1.28. The same measure, in the same setting: the figure for TGACAT is 1.19; for TGCGAA it is 1.22. Still for that read-out and setting: the figure for CTATCC is 1.4; for ATTGGC it is 1.13; for AGTGTT it is 1.15. As for TAGATC, the binding signal turned out to be 0.983. The same measure, in the same setting: next, TAACTG: 1.33; AAACCG: 1.05; TGTAAC: 1.16. The same measure, in the same setting: next, TTCCTA: 1.93; CTTTGG: 1.04.

For the sequence AAGTGC, the binding signal amounted to 1.34. Still for that read-out and setting: the figure for GCTTGG is 1.16; for ACGAAA it is 1.16; for CGGCAT it is 1.19.

ACCTGG gave a binding signal of 1.31. Still for that read-out and setting: next, CCTTCC: 2.75; TGTTCC: 1.8; CACAAC: 1.23. The same measure, in the same setting: the figure for TAGCAG is 0.979. Same read-out and setting: the figure for CCGGTC is 1.08. As to AGTACA, the binding signal amounted to 1.07. On the same count and under the same terms, the figure for CCCACC is 1.13.
